Measurements from PubChem BioAssay AID2685 (National Center for Advancing Translational Sciences (NCATS), 2010).
The other results are listed elsewhere or left out. The main result of the screen is listed elsewhere. These columns were measured beside it and carry no call. Most of these compounds were active or inconclusive in the main read-out, so they are no random draw. Potencies come from curve fits of mixed quality, noted in brackets.

Experiment: qHTS Assay for Lipid Storage Modulators in Drosophila S3 Cells;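 for cell number change: cells counted by Cell Tracker Red CMTPX staining in the red channel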
Details: BODIPY lipid droplet fluorescence, 18-24 h; for cell number change: measured here: cell count max response, cells fed with added oleic acid
Method in brief: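 Laser-scanning cytometry quantifies lipid droplet accumulation (500–530 nm total intensity; droplet/cell object ratio) in oleic acid-fed (400 uM added) Drosophila S3 cells treated with a concentration series. 20 uM Triacsin C defined 100% inhibition.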

[1] = measured here: lipid fluorescence (Fed channel) AC50, cells fed with added oleic acid
[2] = measured here: cell number channel AC50, cells fed with added oleic acid

Row | SMILES | cell number change | AC50 [1] | AC50 [2]
1 | Cc1[nH]c(-c2ccccn2)nc(=S)c1Cl | -25.9% |  | 
2 | CCOC(=O)c1cc2c(N)c(C(=O)c3ccc(Br)cc3)sc2[nH]c1=O | 0.955% | 6.51 µM [falling, single point] | 
3 | COc1ccc(/C=C(/NC(=O)c2ccccc2)C(=O)N2CCCCC2)cc1OC | -53.7% | 11.6 µM [rising, single point] | 16.4 µM [falling, partial curve, poor fit]
4 | O=C(NCCS(=O)(=O)N1CCN(c2cccc(Cl)c2)CC1)c1ccc2c(c1)OCO2 | -22.5% | 0.184 µM [falling, full curve, poor fit] | 
5 | Cc1cc(C)nc(/N=C2\NC(=O)CC(C(=O)O)N2c2ccc(Oc3ccccc3)cc2)n1 (stereo not given) | 2.49% | 14.6 µM [rising, single point] | 
6 | CCOC(=S)SCC(=O)Nc1nc(C)c(C)s1 | -23.9% | 23.1 µM [falling, partial curve] | 
7 | O=c1oc2ccccc2c(NC2CCCCC2)c1NS(=O)(=O)c1ccc(F)c(Cl)c1 | -20.4% |  | 4.11 µM [falling, full curve, poor fit]
8 | O=C(NCC1(N2CCOCC2)CCCCC1)c1ccc(S(=O)(=O)Nc2ccccc2F)cc1 | -45.1% | 0.731 µM [falling, full curve] | 1.16 µM [falling, full curve]
9 | Cc1cccc(CSCCNC(=S)Nc2ccccc2)c1 | 1.47% | 16.4 µM [rising, single point] | 
10 | O=C1CC(c2ccccc2)CC(O)=C1C=NCc1ccncc1 (stereo not given) | -36.8% | 18.4 µM [falling, single point] | 29.1 µM [falling, single point]
11 | S=c1[nH]nc(-c2cc(-c3ccccc3)n[nH]2)n1/N=C/c1ccc(Cl)c(Cl)c1 | -48.6% | 20.6 µM [falling, single point] | 29.1 µM [falling, partial curve]
12 | Cc1ccc(S(=O)(=O)N(CC(=O)O)c2ccc(Cl)c(C(F)(F)F)c2)cc1 | -39.5% | 29.1 µM [falling, single point] | 29.1 µM [falling, single point]
13 | COC(=O)c1cccc(OCC(O)Cn2cnc3cc(C)c(C)cc32)c1 (stereo not given) | -19.5% |  | 
14 | O=C(Nc1sc2c(c1C(=O)O)CCCCC2)c1cccnc1 | 5.26% |  | 
15 | Cc1c(Cl)cccc1-n1nnnc1-c1cccs1 |  | 0.461 µM [rising, full curve] | 
16 | CCOC(=O)C1CCCN(C(=O)c2cn(CC)c(=O)c3cc(OC)c(OC)cc23)C1 (stereo not given) | -6.02% |  | 
17 | Cc1ccc2c(c1)N(CC(=O)NCc1cccs1)C(=O)CO2 | 29.1% | 18.4 µM [rising, single point] | 
18 | COc1ccc(-n2nc3c(N4CCC(C(=O)NCc5ccccc5)CC4)nnc(C)c3c2C)cc1 | 23.9% | 0.58 µM [rising, single point] | 
19 | O=C(Nc1nc2c(Cl)cccc2s1)c1ccc([N+](=O)[O-])o1 |  | 4.11 µM [falling, full curve] | 
20 | CCN1CCCC1CNC(=O)C1c2cc(OC)c(OC)cc2C(=O)N(C)C1c1cccnc1 (stereo not given) | -12.7% |  | 

Row | SMILES | cell number change | AC50 [1] | AC50 [2]
21 | O=C(CCN1C(=O)/C(=C\c2cccc(Br)c2)SC1=S)N1CCOCC1 | 29.1% | 32.6 µM [rising, single point] | 
22 | CCCCCCSc1cccc(-c2nc3cc(C)ccn3c2NCc2ccccc2)c1 | -2.4% |  | 
23 | O=C(c1cc(COc2ccc(F)cc2Cl)on1)N(CCO)Cc1cccs1 | -2.27% | 18.4 µM [rising, partial curve] | 
24 | CCOc1ccc(S(=O)(=O)Nc2nc3ccccc3nc2Cl)cc1 | -6.38% |  | 
25 | O=C(NNC(=O)c1ccncc1)Nc1cccc([N+](=O)[O-])c1 | -8.3% |  | 
26 | COc1ccc(NC(=O)c2cc([N+](=O)[O-])ccc2N2CCN(C)CC2)cc1 | -9.55% |  | 0.00461 µM [falling, full curve, poor fit]
27 | CC(=O)NC(c1ccco1)c1cc(F)c2cccnc2c1O (stereo not given) | -0.225% | 14.6 µM [falling, partial curve] | 
28 | Cc1cc(C)cc(NC(=S)NCc2ccc3[nH]c4c(c3c2)CCCC4)c1 | -48.8% | 0.326 µM [rising, partial curve, poor fit] | 18.4 µM [falling, partial curve, poor fit]
29 | COc1ccc(CCN(C)C(=O)c2ccc(C)c(S(=O)(=O)N3CCCCC3)c2)cc1OC | 8.21% | 29.1 µM [falling, single point] | 
30 | O=C(Cn1cnc2scc(-c3ccccc3)c2c1=O)N1CCOCC1 | -14.2% | 0.82 µM [rising, partial curve] | 0.326 µM [rising, full curve, poor fit]
31 | O=C(CN1CCCC1)Nc1ccccc1Cl | -106% |  | 20.6 µM [falling, partial curve, poor fit]
32 | O=C(CN1CCCC1)N1c2ccccc2Sc2ccc(Cl)cc21 | -19.3% | 0.146 µM [rising, full curve, poor fit] | 
33 | Cc1cccc(N(CC(=O)NC2CCCC2)C(=O)CCC(=O)Nc2ccccn2)c1 | 10.5% | 29.1 µM [falling, single point] | 
34 | O=C(NCc1cccnc1)C12CC3CC(CC(Cl)(C3)C1)C2 | 17.8% |  | 
35 | CS(=O)(=O)c1ccc2nc(NC(=O)c3ccccc3Cl)sc2c1 | 2.91% |  | 
36 | O=C(CN1C(=O)NC2(CCOc3ccccc32)C1=O)c1ccc(F)c(F)c1 (stereo not given) | 44.1% |  | 29.1 µM [rising, single point]
37 | CC1=C(C(=O)Nc2ccccc2)C2(CCCCC2)C(C#N)=C(S)N1 | 33.9% |  | 18.4 µM [rising, single point]
38 | O=C(Nc1cccnc1Cl)c1cccnc1Cl | 70.9% |  | 29.1 µM [rising, single point]
39 | CCC(=O)Nc1ccccc1Nc1cc(C#N)c(C#N)cc1[N+](=O)[O-] | -20.5% |  | 
40 | COc1ccc(C(=O)c2c(C(F)(F)F)oc3c2C(=O)c2ccccc2C3=O)cc1 | -80.5% | 29.1 µM [falling, single point] | 16.4 µM [falling, partial curve]

Exported tab-delimited: entries from further up
Row	SMILES	cell number change	AC50 [1]	AC50 [2]
31	O=C(CN1CCCC1)Nc1ccccc1Cl	-106%		20.6 µM [falling, partial curve, poor fit]
34	O=C(NCc1cccnc1)C12CC3CC(CC(Cl)(C3)C1)C2	17.8%		
